PubChem BioAssay AID493246 – Drosophila RNAi Screening Center – 2011

- Purpose: 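Identify essential fly genes by loss of cell viability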 (primary screen)
- Cells: Drosophila Kc and S2R+ cells
- Reagent: long dsRNA against Drosophila genes
- Measured: 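Raw, unnormalised count of remaining cells in each well; per-plate z-scores of cell number underlie the calls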
- Scale: Kc cell number and S2R+ cell number: higher = more cells remaining
- Rule for the call: 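Active when the per-plate z-score of cell number is 3 or more in the direction of fewer cells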
In all, the deposit lists about 21,000 reagents; this is an unselected part of those that have a named target and a result. Of all reagents, 429 (2%) got an active call. 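Values are raw and not normalised between plates; calls rest on per-plate z-scores that were not deposited.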 A number with no mark means an inactive call. A plus sign joins genes that one reagent is predicted to hit. Reagent sequences are not shown. The record does not give: the amount of reagent, the time to read-out.

Ugt303B3
- Kc cell number, rep 1: 1.60e6
- Kc cell number, rep 2: 1.53e6
- S2R+ cell number, rep 1: 1.05e6
- S2R+ cell number, rep 2: 1.14e6

PI31
- Kc cell number, rep 1: 1.39e6
- Kc cell number, rep 2: 1.48e6
- S2R+ cell number, rep 1: 1.11e6
- S2R+ cell number, rep 2: 1.17e6

CG10734
- Kc cell number, rep 1: 1.45e6
- Kc cell number, rep 2: 1.55e6
- S2R+ cell number, rep 1: 1.15e6
- S2R+ cell number, rep 2: 1.25e6

CG14780
- Kc cell number, rep 1: 1.53e6
- Kc cell number, rep 2: 1.45e6
- S2R+ cell number, rep 1: 9.59e5
- S2R+ cell number, rep 2: 1.07e6

ValRS
- Kc cell number, rep 1: 1.20e6
- Kc cell number, rep 2: 1.26e6
- S2R+ cell number, rep 1: 9.46e5
- S2R+ cell number, rep 2: 9.82e5

CG16786
- Kc cell number, rep 1: 1.55e6
- Kc cell number, rep 2: 1.63e6
- S2R+ cell number, rep 1: 1.23e6
- S2R+ cell number, rep 2: 1.35e6

CG40485
- Kc cell number, rep 1: 1.42e6
- Kc cell number, rep 2: 1.47e6
- S2R+ cell number, rep 1: 8.88e5
- S2R+ cell number, rep 2: 9.95e5

CG14624
- Kc cell number, rep 1: 1.44e6
- Kc cell number, rep 2: 1.49e6
- S2R+ cell number, rep 1: 1.05e6
- S2R+ cell number, rep 2: 1.16e6

Ythdc1
- Kc cell number, rep 1: 1.39e6
- Kc cell number, rep 2: 1.50e6
- S2R+ cell number, rep 1: 1.20e6
- S2R+ cell number, rep 2: 1.12e6

eEF1beta
- Kc cell number, rep 1: 1.39e6
- Kc cell number, rep 2: 1.44e6
- S2R+ cell number, rep 1: 1.18e6
- S2R+ cell number, rep 2: 1.27e6

CG11726
- Kc cell number, rep 1: 1.70e6
- Kc cell number, rep 2: 1.74e6
- S2R+ cell number, rep 1: 1.53e6
- S2R+ cell number, rep 2: 1.60e6

CG11779 + CG5835
- Kc cell number, rep 1: 1.37e6
- Kc cell number, rep 2: 1.41e6
- S2R+ cell number, rep 1: 1.01e6
- S2R+ cell number, rep 2: 1.13e6

No new results follow: entries from further up.
CG16786
- Kc cell number, rep 1: 1.55e6
- Kc cell number, rep 2: 1.63e6
- S2R+ cell number, rep 1: 1.23e6
- S2R+ cell number, rep 2: 1.35e6

CG40485
- Kc cell number, rep 1: 1.42e6
- Kc cell number, rep 2: 1.47e6
- S2R+ cell number, rep 1: 8.88e5
- S2R+ cell number, rep 2: 9.95e5
